Measured values published in patent US5827821A, “Conformationally stabilized cell adhesion peptides” (The Burnham Institute, priority 1992, dated 1998).
At least one peptide structure holds a part that was inferred or is arguable (an end, a ring closure or a residue).

Columns and labels:
[1] = system: attachment of normal rat kidney cells to vitronectin; experiment: Cell adhesion assay: inhibition of attachment of normal rat kidney cells to vitronectin; format: cell-based; details: vitronectin-coated wells, peptide 0 to 10.0 mM, FIG. 2
Method: (§1) Fibronectin and vitronectin were purified from human plasma according to the methods of Ruoslahti et al., (1982) Meth. Enz. 82:803; and Hayman et al., (1983) PNAS 80:4003, respectively, both of which are incorporated herein by reference. The adhesion of normal rat kidney cells to fibronectin and vitronectin was assayed as described in Ruoslahti et al., Meth. Enz. supra. Briefly, 0.1 ml solution of fibronectin or vitronectin at a concentration of 12 μg/ml in 0.1M PBS was placed in each well of 96-well plastic microtiter plates and left for 2 hours at room temperature. The unattached protein was removed by washing three times with PBS.
(§2) One day before the assay, a confluent culture of normal rat kidney cells was split 1:2 using standard tissue culture trypsin. The cells were washed three times with PBS, pH 7.2. […] Before the last centrifugation, a sample was taken and cell numbers and viability by trypan blue exclusion are determined. […]
(§3) The unattached cells were removed simply by removing the medium and washing the wells. […] The cells were then fixed with 3% paraformaldehyde in PBS and stained with 1% toluidine blue, paraformaldehyde in PBS, and attached cells counted. Their number was determined using a cell counter that is capable of counting cells attached to a surface (Dynatech Laboratories, Alexandria, Va.). […]

[2] = system: attachment of normal rat kidney cells to fibronectin; experiment: Cell adhesion assay: inhibition of attachment of normal rat kidney cells to fibronectin; format: cell-based; details: fibronectin-coated wells, peptide 0 to 10.0 mM, FIG. 2
Method: as §1, §2, §3

For `C[C@H](NC(=O)[C@@H]1CSSC(C)(C)[C@H](NC(=O)CN)C(=O)NCC(=O)N[C@@H](CCCNC(=N)N)C(=O)NCC(=O)N[C@@H](CC(=O)O)C(=O)N[C@@H](CO)C(=O)N2CCC[C@H]2C(=O)N1)C(=O)O` [cyclic peptide of the invention], the “molar concentration inhibiting attachment to vitronectin, fold lower than the linear peptide” value [1] was 10 fold and the “inhibition of attachment to fibronectin” value [2] was “ineffective”.
